Consider 95 compounds from PubChem BioAssay AID463205 (Broad Institute, 2010).

In all, about 2,400 compounds went through this assay and about 20 (0.8%) were called active.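 The calls were made as follows: active = AC50 no more than ten times the highest tested concentration, or full inhibition at every dose giving a flat fit (cut at about 30 µM in these data); inconclusive = flat fit with activity between 30% and 70%, or poor-quality invalid fit; inactive = AC50 more than ten times the top tested dose.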 The list shows a part of the results.

The nature of this experiment: inhibitors of ADP-Glo detection reagents, dose response, artefact control for GSK-3a inhibitor project, biochemical, luminescence, cell-free, homogeneous (AID 463205).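 Also: kinase-free counter-screen against the ADP-Glo detection reagents only; potency is for inhibitors that reduce the luminescence signal.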 The following applies: 5 uM ADP. A general note: In ADP-Glo the light output rises with the ADP produced.
Usually AC50 stands for the concentration giving half of the maximal activity seen. For `CCOc1cccc2sc(=NC(=O)c3ccco3)n(CC(=O)OC)c12`, the AC50 is inactive: > 30 µM.
The result for `COc1ccc([N+](=O)[O-])cc1NC(=O)CCN1CCN(CCO)CC1` reads inactive: > 30 µM.
`CCC(=O)NCCNc1ccc([N+](=O)[O-])cn1`: the AC50 is inactive: > 30 µM.
Then `CC1(C)Cc2cccc(C(=O)NCc3ccco3)c2O1`, with inactive: > 30 µM; and `CC12CCC(C(=O)Nc3ncc([N+](=O)[O-])s3)(OC1=O)C2(C)C` (stereo not given), with inactive: > 30 µM; and `Nc1ncnc2c1ncn2[C@@H]1O[C@H](CNCc2ccccc2)[C@@H](O)[C@H]1O`, with inactive: > 30 µM.
The result for `c1ccc2c(CCNc3ncnc4nc[nH]c34)c[nH]c2c1` reads inactive: > 30 µM; that for `NC(=O)c1ccc(NC(=O)CSc2nnc(-c3ccc4c(c3)OCO4)o2)cc1`, inactive: > 30 µM; that for `CCOc1cccc(-c2c(C(=O)N/N=C/c3cccnc3)nnn2-c2nonc2N)c1`, inactive: > 30 µM.
Then `COc1ccc(C(=O)O/N=C(\N)c2ccccn2)c(OC)c1`, with inactive: > 30 µM; and `CCN1CCN(Cc2c(O)ccc3c2O/C(=C\C=C\c2ccccc2OC)C3=O)CC1`, with inactive: > 30 µM; and `CCCCc1[nH]c(=O)c(C#N)c2c1CCCC2`, with inactive: > 30 µM.
For the compound `C[C@@H](NC(=O)c1[nH]cnc1C(=O)Nc1ccon1)c1ccccc1`, the AC50 was inactive: > 30 µM.
Then `O=C(O)c1ccc(Nc2nc(-c3cccnc3)nc3ccccc23)cc1`, with inactive: > 30 µM.
`Cc1nn(C)c(C)c1CN(C)S(=O)(=O)c1ccc(F)cc1`: the AC50 was inactive: > 30 µM.
Then `CC(=O)N1CCc2c(sc(NC(=O)c3cccc(N4C(=O)CCC4=O)c3)c2C(N)=O)C1`, with inactive: > 30 µM; and `Cc1ccc(NC(=O)c2cc(-n3cnnc3)ccc2Cl)cc1`, with inactive: > 30 µM; and `CCC(CC)c1nnc(NC(=O)Oc2ccccc2)s1`, with inactive: > 30 µM.
`Cc1cc2nc(-c3cccnc3SCC(=O)NCc3ccco3)[nH]c2cc1C`: the AC50 is inactive: > 30 µM.
Then `Cc1cccc(C)c1OCC(=O)Nc1ccc2c(c1)C(=O)NC2=O`, with inactive: > 30 µM; and `CC(=O)Nc1sc2c(c1C(N)=O)CCC2`, with inactive: > 30 µM; and `CCOc1ccc(-c2nc(N)ncc2-c2ccccc2)c(O)c1`, with inactive: > 30 µM.
Then `CN(C)CCCNS(=O)(=O)c1ccc(-n2nnc3ccccc32)c([N+](=O)[O-])c1`, with inactive: > 30 µM; and `COc1ccc(OC)c(/C=C2\Oc3cc(OCC(=O)N4CC(O)C[C@H]4C(=O)O)ccc3C2=O)c1` (stereo not given in full), with inactive: > 30 µM.
In the case of `COc1ccc2nc(NC(=O)CCc3cc(OC)c(OC)c(OC)c3)sc2c1`, the AC50 is inactive: > 30 µM.
In the case of `COc1ccc(S(=O)(=O)N[C@H](C(=O)O)C(C)C)cc1`, the AC50 was inactive: > 30 µM.
Turning to `Nc1c(C(=O)O)ccc2c1C(=O)c1ccccc1C2=O`, the AC50 is inactive: > 30 µM.
The result for `COC(=O)c1sc2cnccc2c1N` reads inactive: > 30 µM.
Then `CC1CC(=O)c2cnc(NCC3CCCO3)nc2C1` (stereo not given), with inactive: > 30 µM; and `CC(C)c1c(C(=O)N/N=C/c2cccnc2)nnn1-c1nonc1N`, with inactive: > 30 µM; and `CN(C)C=NC(=O)/C(C#N)=C/c1ccccc1`, with inactive: > 30 µM.
With `Cc1cc(=O)[nH]c2ccccc12`, the AC50 was inactive: > 30 µM.
The result for `COc1ccc(-c2nc(N)n[nH]2)cc1` reads inactive: > 30 µM; that for `NC(=O)c1cn(-c2ccccc2)nc1-c1cccnc1`, inactive: > 30 µM.
Then `CC(=O)c1sc(Nc2cccc(C)c2)nc1C`, with inactive: > 30 µM.
The result for `NNC(=O)CCCCCCCCCCOCCCCO` reads inactive: > 30 µM; that for `COc1cccc(CC(=S)N2CCOCC2)c1`, inactive: > 30 µM.
Turning to `c1ccc(-c2csc3ncnc(NCc4ccccn4)c23)cc1`, the AC50 is inactive: > 30 µM.
The result for `O=C(CN(Cc1ccco1)C(=O)CCC(=O)Nc1ccccn1)NCc1ccccc1` reads inactive: > 30 µM; that for `CN1/C(=C\C=C(/C#N)C(=O)Nc2ccc(Cl)cc2)C(C)(C)c2ccccc21`, inactive: > 30 µM; that for `Cc1c(O)c(CN2CCCC2)cc2c1oc(=O)c1ccccc12`, inactive: > 30 µM.
The result for `CCc1ccc(C2C3=C(CC(C)(C)CC3=O)Nc3c2c(=O)[nH]c2nc(C)nn32)cc1` (stereo not given) reads inactive: > 30 µM; that for `CC(=O)Nc1cccc(-c2cnc(N)c(C(=O)c3cccnc3)n2)c1`, inactive: > 30 µM; that for `O=C(Nc1c(C(=O)O)oc2ccc(Br)cc12)c1ccccc1`, inactive: > 30 µM.
Then `O=C1/C(=C/c2ccc(Br)cc2)Oc2cc(O)ccc21`, with inactive: > 30 µM; and `O=C(O)c1cccc2c1C(=O)c1ccccc1C2=O`, with inactive: > 30 µM.
Consider `CCOc1ccc(Nc2nc(N)c([N+](=O)[O-])c(N3CCN(CC)CC3)n2)cc1`, for which the AC50 was inactive: > 30 µM.
Take `CN(C)/C=C/c1c([N+](=O)[O-])c2ccc(O)cc2n1-c1ccccc1`: the AC50 was inactive: > 30 µM.
The result for `CCN1CCN(c2nc(N)c([N+](=O)[O-])c(Nc3ccc(C)c(C)c3)n2)CC1` reads inactive: > 30 µM.
Then `Cn1c(=O)c2[nH]c(NCC3CCCO3)nc2n(-c2ccccc2)c1=O` (stereo not given), with inactive: > 30 µM.
Turning to `CCc1ccc(OCC(O)CNC(C)(C)C)cc1` (stereo not given), the AC50 was inactive: > 30 µM.
The result for `O=[N+]([O-])c1ccc(N/N=C/c2ccc(OCc3cccc4ccccc34)cc2)nc1` reads inactive: > 30 µM; that for `COc1ccc(OC)c(C2CC(=O)Nc3n[nH]c(-c4ccccc4)c32)c1` (stereo not given), inactive: > 30 µM.
Then `c1cncc(-c2nnc3n2N=C(c2cccs2)CS3)c1`, with inactive: > 30 µM; and `COC(=O)c1c(NC(=O)Cc2cccs2)sc2c1CCCC2`, with inactive: > 30 µM.
The result for `Cc1cc2c(C)c(C)c(=O)[nH]c2cc1N` reads inactive: > 30 µM; that for `O=C(NCC1CCCO1)c1ccc(NC(=O)c2cccc([N+](=O)[O-])c2)cc1` (stereo not given), inactive: > 30 µM.
`CN(C)CCn1c2c(c(SCC(=O)Nc3nccs3)nc1=O)CCCC2`: the AC50 is inactive: > 30 µM.
As for `CN(C)Cc1c(C(=O)N/N=C/c2ccc(-c3ccccc3)cc2)nnn1-c1nonc1N`, the AC50 was inactive: > 30 µM.
The result for `COCc1cc(C)nc(OCC(=O)N/N=C/c2ccc(O)cc2)c1C#N` reads inactive: > 30 µM; that for `COc1ccccc1OCCNC(=O)C1CCN(C(C)=O)CC1`, inactive: > 30 µM.
Then `COc1ccc(NC(=O)Nc2cc(F)ccc2C)cc1`, with inactive: > 30 µM.
The result for `COC(=O)c1ccc(CN2C(=O)NC(CC(C)C)C2=O)cc1` (stereo not given) reads inactive: > 30 µM; that for `CC(C)C(=O)NC(=S)/C=C1/N(C)c2ccccc2C1(C)C`, inactive: > 30 µM; that for `Cc1c(O)ccc2c3c(c(=O)oc12)CCCC3`, inactive: > 30 µM.
With `CN1CCc2cccc3c2[C@H]1Cc1ccc(O)c(O)c1-3`, the AC50 is inactive: > 30 µM.
Then `O=C(NC1CCCC1)c1cccc(NC(=O)c2ccco2)c1`, with inactive: > 30 µM.
With `COc1ccc(Cl)cc1C(=O)Nc1ccc(NC(=O)c2ccco2)cc1`, the AC50 is inactive: > 30 µM.
Then `NC(=O)c1ccsc1NC(=O)COC(=O)Cc1ccsc1`, with inactive: > 30 µM; and `COc1ccc(OCc2nc(N)nc(Nc3ccccc3OC)n2)cc1`, with inactive: > 30 µM; and `O=C(OCC#CCSc1nnc(-c2ccncc2)o1)c1cccs1`, with inactive: > 30 µM.
The result for `O=c1cc(-c2ccc(O)cc2)oc2c1ccc1ccccc12` reads inactive: > 30 µM; that for `CC(C)C(=O)NC(=S)Nc1sc2c(c1C(N)=O)CCCC2`, inactive: > 30 µM; that for `CC(C)(C)N=Cc1c(O)ccc2oc3c(c12)CCCC3`, inactive: > 30 µM.
The result for `CCC1(C)Cc2c(sc3nn[nH]c(=O)c23)CO1` (stereo not given) reads inactive: > 30 µM; that for `CCC(Oc1ccccc1)C(=O)N(C)CC(=O)N(CC(C)C)c1c(N)n(CC(C)C)c(=O)[nH]c1=O` (stereo not given), inactive: > 30 µM; that for `Cc1oc2ccc(O)c(CN3CCOCC3)c2c1C(=O)c1ccc(Cl)cc1`, inactive: > 30 µM.
For the compound `COc1ccccc1-c1noc(CSc2nc(N)cc(=O)[nH]2)n1`, the AC50 was inactive: > 30 µM.
The result for `CC(C)N=C(NC#N)SCc1ccccc1F` reads inactive: > 30 µM; that for `CCOc1c(O)ccc(C2NC(=O)N(C)C(C)=C2C(=O)OC)c1[N+](=O)[O-]` (stereo not given), inactive: > 30 µM; that for `CC(Oc1ccc(Br)cc1)C(=O)N1CCC(C(N)=O)CC1` (stereo not given), inactive: > 30 µM.
Then `c1ccc(Cn2nc(-c3ccccc3)nc2-c2ccccc2)cc1`, with inactive: > 30 µM; and `COc1ccccc1OCC(=O)Nc1sc2c(c1C(N)=O)CCC2`, with inactive: > 30 µM; and `O=C(NCCCN1CCCC1)c1cc2c(Cl)nc3ccccc3c2s1`, with inactive: > 30 µM.
For the compound `COc1ccc(-c2cc(C(F)(F)F)nc(SCC(=O)NCc3cccs3)n2)cc1`, the AC50 is inactive: > 30 µM.
For the compound `Cc1cc(N2CCN(c3ccccc3)CC2)n2c(n1)nc1ccccc12`, the AC50 was inactive: > 30 µM.
Then `COc1ccc(-c2csc(Nc3ccccc3)n2)cc1`, with inactive: > 30 µM; and `COc1ccc(Cn2nnc(C(=O)Nc3ccc(F)cc3)c2N)cc1`, with inactive: > 30 µM.
Then `Cc1ccc(-c2c3c(=O)n(C)c(=O)n(C)c3cn2Cc2ccccn2)cc1`, with inactive: > 30 µM; and `O=C(CSc1nc2ccccc2c(=O)n1-c1ccc(F)cc1F)c1c[nH]c2ccccc12`, with inactive: > 30 µM; and `COc1ccc(OCc2nc(N)nc(Nc3cccc(C)c3C)n2)cc1`, with inactive: > 30 µM.
The result for `Nc1nc(Nc2cccc(F)c2)nc(NCc2ccco2)c1[N+](=O)[O-]` reads inactive: > 30 µM.
Take `COCCCNc1c2c(nc3nnnn13)CCCC2`: the AC50 was inactive: > 30 µM.
On to `COc1ccc(-c2ncncc2-c2csc(C)n2)c(O)c1`, for which the AC50 was inactive: > 30 µM.
The result for `COc1cc(/C=C2/NC(=O)NC2=O)cc(Br)c1OCc1cccc(C(=O)O)c1` reads inactive: > 30 µM.
